This passage reports binding signal results from publication PMC7819943, “Rice protein-binding microarrays: a tool to detect cis-acting elements near promoter regions in rice”.

This is one part of the list.

The target in this assay is T1, OsSMF1 (Oryza sativa, UniProt Q6ZLB0 1-436).
T1 sequence: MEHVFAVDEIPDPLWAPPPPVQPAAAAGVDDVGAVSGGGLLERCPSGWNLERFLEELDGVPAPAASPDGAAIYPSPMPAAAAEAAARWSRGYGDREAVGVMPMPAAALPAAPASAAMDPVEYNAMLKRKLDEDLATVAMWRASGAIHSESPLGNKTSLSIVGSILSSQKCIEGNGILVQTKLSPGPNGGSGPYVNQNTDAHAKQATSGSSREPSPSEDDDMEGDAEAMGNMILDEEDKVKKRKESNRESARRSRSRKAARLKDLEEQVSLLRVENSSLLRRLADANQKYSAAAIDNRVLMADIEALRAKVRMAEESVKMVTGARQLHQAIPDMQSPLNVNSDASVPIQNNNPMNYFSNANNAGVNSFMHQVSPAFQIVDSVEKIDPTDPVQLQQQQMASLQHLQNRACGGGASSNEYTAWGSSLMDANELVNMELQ
Nature of the assay: protein-binding microarray (RPBM); PBS, 2% BSA, 51.3 ng/ul salmon testes DNA, 50 uM zinc acetate, 200 nM TF, 25 C, 1 h; high values mean tight binding. Particulars: protein: recombinant; tags: N-terminal polyhistidine and DsRed monomer fusion (pET32a); chain copies: 2; label: CyDye5-dUTP incorporated in the synthesized complementary strand; 3' TTTTT single-stranded linker to array surface; dsDNA, one strand shown. Put shortly: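 The binding signal is fluorescence intensity per feature, in arbitrary units, read on an Axon 4000B scanner. Polyhistidine- and DsRed-tagged transcription factors (N-terminal fusions) from E. coli BL21-CodonPlus were purified on Ni–NTA and applied at 200 nM for 1 h at 25 °C to a double-stranded, BSA-blocked custom Agilent array in buffer with 50 µM zinc acetate.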
As to “GCAAGCTACTAGCACACACTATCCACGTACTCCAGTACAGCGGAGTCACCTAGTGCAG”, the binding signal was 5550 fluorescence intensity (a.u.).

Take “ACCTATCATCAATGTGTTGGCTTAATTCAGCATCACTAATCGGAGTCACCTAGTGCAG”: the binding signal is 3380 fluorescence intensity (a.u.).

As to “GGAGGACCATTCGCTTCCACATCTGCGCCATCACAACCGCCGGAGTCACCTAGTGCAG”, the binding signal is 3940 fluorescence intensity (a.u.).

For the sequence “TACACCGACTCCAACACATCATCCTCCTCCACCAAACTTACGGAGTCACCTAGTGCAG”, the binding signal was 3450 fluorescence intensity (a.u.).

Consider “TTCTATAGAAGCTTTCTCTCTTAAAACTCTACCAAAATTTCGGAGTCACCTAGTGCAG”, for which the binding signal is 24000 fluorescence intensity (a.u.).

In the case of “TTAATTCATTAAACTTGTCGACAGGTCAACTCACCGACCACGGAGTCACCTAGTGCAG”, the binding signal is 3950 fluorescence intensity (a.u.).

Turning to “TGATTGCCTTGCCTTGCCTGCCTGCGTGTCATCAGTCGTCCGGAGTCACCTAGTGCAG”, the binding signal is 11800 fluorescence intensity (a.u.).

In the case of “TGCCGAAGTTGTTGGTGACGAAGTCGAGGCTGCCGAACCGCGGAGTCACCTAGTGCAG”, the binding signal was 4750 fluorescence intensity (a.u.).

With “GGATTTCCTGGGCGGGCGGGGCGCGGATAAGGGGTGTGTGCGGAGTCACCTAGTGCAG”, the binding signal is 3690 fluorescence intensity (a.u.).

For the sequence “CTTGTGGGTCCCCAATTCACGAGTCATTGCTGTCACGCTCCGGAGTCACCTAGTGCAG”, the binding signal is 4620 fluorescence intensity (a.u.).

Take “GCTGCTGCACCGTCTCTCTTCATAAATATACTAGTAGGAGCGGAGTCACCTAGTGCAG”: the binding signal was 3180 fluorescence intensity (a.u.).

“TAATATATCAAGCATAAATTTATGTTATCATTTTCTTTCGCGGAGTCACCTAGTGCAG”: the binding signal was 3980 fluorescence intensity (a.u.).

Consider “GACATTGATAATAACACCGTCGTCAGCGCTACCCAAATTCCGGAGTCACCTAGTGCAG”, for which the binding signal was 4070 fluorescence intensity (a.u.).

Turning to “CTGGTACATATGCTTAATTATGTGGCAATTGCAGAGATTGCGGAGTCACCTAGTGCAG”, the binding signal was 4570 fluorescence intensity (a.u.).

Regarding “AGGTATATCTTGTAGAGCGTGTCATTGTCCAAAGCGTCAACGGAGTCACCTAGTGCAG”, the binding signal was 4060 fluorescence intensity (a.u.).

Take “TATATATATATAGCACGTCACGCTTAATATCATTCTGGTTCGGAGTCACCTAGTGCAG”: the binding signal was 9050 fluorescence intensity (a.u.).

For “CGAGTGCGTCCCGTACCAACCAAACACGTCCGCTGTCATGCGGAGTCACCTAGTGCAG”, the binding signal was 4710 fluorescence intensity (a.u.).

As to “GGACAACCCAGATCCCTCGCCCGCGACTCTTCTACTCGCGCGGAGTCACCTAGTGCAG”, the binding signal was 22800 fluorescence intensity (a.u.).

On to “AATCCTAAATCAATCACCATAAGGTAAATTGACGTAGGAACGGAGTCACCTAGTGCAG”, for which the binding signal is 6050 fluorescence intensity (a.u.).

For “TGAAACGCTGACCGAGTCATCAGATATGGCTTATGTGCCTCGGAGTCACCTAGTGCAG”, the binding signal was 5790 fluorescence intensity (a.u.).

Consider “AGCTACTGCGGCACTAGTCACTCTCTCTCTCTCTCTCTATCGGAGTCACCTAGTGCAG”, for which the binding signal was 3820 fluorescence intensity (a.u.).

Take “GTCAAGTGCTGACAAGTGTCTGCACTAGCTAGAGATATATCGGAGTCACCTAGTGCAG”: the binding signal is 3770 fluorescence intensity (a.u.).

Turning to “AGCGAGCGACGGGCGGGGCGGAGCGGGGCGGGGCTGCATTCGGAGTCACCTAGTGCAG”, the binding signal is 4380 fluorescence intensity (a.u.).
